From patent US20070202593A1
Results are given in words; binding and its absence hold for the method and conditions named. Some results given as binding are weak or reduced against the parent protein; the word gives no strength. Tags and fused reporters may be left off the sequences shown.

Amino acid sequences for entries named in this document (tags omitted). Residues count along the entry.
UniProt Q6UVK1, residues 30-2322: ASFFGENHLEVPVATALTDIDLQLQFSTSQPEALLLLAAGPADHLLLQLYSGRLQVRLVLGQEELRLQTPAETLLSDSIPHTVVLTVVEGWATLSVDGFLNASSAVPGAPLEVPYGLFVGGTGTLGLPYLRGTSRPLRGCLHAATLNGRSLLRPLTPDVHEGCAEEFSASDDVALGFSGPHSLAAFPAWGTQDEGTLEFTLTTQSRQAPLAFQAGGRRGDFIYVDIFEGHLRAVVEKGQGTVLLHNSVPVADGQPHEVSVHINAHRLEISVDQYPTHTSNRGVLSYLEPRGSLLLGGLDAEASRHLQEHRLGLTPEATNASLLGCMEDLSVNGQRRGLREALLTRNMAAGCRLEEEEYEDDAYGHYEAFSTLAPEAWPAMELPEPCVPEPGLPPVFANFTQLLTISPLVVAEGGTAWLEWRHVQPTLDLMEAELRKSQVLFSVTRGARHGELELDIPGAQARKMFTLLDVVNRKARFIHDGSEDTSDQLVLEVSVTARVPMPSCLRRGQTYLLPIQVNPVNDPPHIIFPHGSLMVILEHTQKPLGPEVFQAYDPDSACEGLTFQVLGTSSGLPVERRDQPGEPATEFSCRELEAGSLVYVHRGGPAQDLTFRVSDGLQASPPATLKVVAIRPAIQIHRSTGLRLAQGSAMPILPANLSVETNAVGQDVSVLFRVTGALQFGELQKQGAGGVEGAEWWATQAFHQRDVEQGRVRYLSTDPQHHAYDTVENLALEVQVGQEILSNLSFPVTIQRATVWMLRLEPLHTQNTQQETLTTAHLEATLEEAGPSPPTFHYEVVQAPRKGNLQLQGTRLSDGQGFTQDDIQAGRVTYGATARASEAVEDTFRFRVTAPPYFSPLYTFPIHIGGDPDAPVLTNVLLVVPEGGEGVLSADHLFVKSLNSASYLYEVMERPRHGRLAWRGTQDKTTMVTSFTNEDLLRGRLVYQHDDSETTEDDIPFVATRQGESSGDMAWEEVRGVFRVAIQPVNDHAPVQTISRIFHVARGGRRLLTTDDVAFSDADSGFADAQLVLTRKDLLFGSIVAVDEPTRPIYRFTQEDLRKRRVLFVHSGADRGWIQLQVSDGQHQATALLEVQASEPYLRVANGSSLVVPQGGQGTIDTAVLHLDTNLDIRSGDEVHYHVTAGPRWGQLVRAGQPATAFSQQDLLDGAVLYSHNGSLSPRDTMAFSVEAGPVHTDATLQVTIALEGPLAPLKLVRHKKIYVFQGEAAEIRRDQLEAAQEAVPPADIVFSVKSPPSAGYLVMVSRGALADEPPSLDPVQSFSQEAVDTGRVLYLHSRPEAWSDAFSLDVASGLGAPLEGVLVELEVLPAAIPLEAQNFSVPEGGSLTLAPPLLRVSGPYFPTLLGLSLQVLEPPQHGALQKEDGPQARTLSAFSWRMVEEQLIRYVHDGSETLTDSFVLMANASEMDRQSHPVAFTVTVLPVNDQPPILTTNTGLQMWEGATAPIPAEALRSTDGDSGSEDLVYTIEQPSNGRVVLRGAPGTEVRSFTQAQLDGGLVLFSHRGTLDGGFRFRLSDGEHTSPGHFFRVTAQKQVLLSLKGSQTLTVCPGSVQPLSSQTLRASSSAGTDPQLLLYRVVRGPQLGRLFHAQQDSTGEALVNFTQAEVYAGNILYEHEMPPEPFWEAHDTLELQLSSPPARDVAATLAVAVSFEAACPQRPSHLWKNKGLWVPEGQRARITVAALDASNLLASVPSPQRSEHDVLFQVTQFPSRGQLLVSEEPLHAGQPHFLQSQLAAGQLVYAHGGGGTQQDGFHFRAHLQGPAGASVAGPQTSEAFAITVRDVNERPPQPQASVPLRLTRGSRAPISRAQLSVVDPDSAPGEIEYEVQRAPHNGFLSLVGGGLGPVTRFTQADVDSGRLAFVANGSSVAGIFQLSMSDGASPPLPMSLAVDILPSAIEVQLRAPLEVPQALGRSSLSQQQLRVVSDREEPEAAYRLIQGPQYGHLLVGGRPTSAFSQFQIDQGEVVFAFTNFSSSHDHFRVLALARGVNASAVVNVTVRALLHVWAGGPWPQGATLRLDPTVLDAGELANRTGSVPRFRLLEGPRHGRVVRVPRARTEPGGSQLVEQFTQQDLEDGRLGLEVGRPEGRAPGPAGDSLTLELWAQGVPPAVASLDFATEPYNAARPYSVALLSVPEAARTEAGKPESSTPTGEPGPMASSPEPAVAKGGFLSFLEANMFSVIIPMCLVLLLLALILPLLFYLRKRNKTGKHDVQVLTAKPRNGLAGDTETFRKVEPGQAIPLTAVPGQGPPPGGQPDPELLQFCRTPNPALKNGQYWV

Target: gp240 antigen (human) (UniProt Q6UVK1)
Assay: uptake into gp240-positive A375-M and AAB-527 melanoma cells (50-200 nM, 2 h), acid strip of the surface, Western blot of lysates with anti-IkB antibody; 63-kDa band absent in gp240-negative TXM-1 cells

B1: IkBα/scFvMEL fusion protein (protein)
chain: GSFQAAERPQEWAMEGPRDGLKKERLLDDRHDSGLDSMKDEEYEQMVKELQEIRLEPQEVPRGSEPWKQQLTEDGDSFLHLAIIHEEKALTMEVIRQVKGDLAFLNFQNNLQQTPLHLAVITNQPEIAEALLGAGCDPELRDFRGNTPLHLACEQGCLASVGVLTQSCTTPHLHSILKATNYNGHTCLHLASIHGYLGIVELLVSLGADVNAQEPCNGRTALHLAVDLQNPDLVSLLLKCGADVNRVTYQGYSPYQLTWGRPSTRIQQQLGQLTLENLQMLPESEDEESYDTESEFTEFTEDELPYDDCVFGGQRLTLGGGGSTDIVMTQSQKFMSTSVGDRVSVTCKASQNVDTNVAWYQQKPGQSPEPLLFSASYRYTGVPDRFTGSGSGTDFTLTISNVQSEDLAEYFCQQYNSYPLTFGGGTKLEIKGSTSGSGKPGSGEGSTKGEVKVEESGGGLVQPGGSMKLSCVVSGFTFGNYWMNWVRQSPEKGLEWIAEIRLKSNNFARYYAESVKGRFTISRDDSKSSVYLQMINLRAEDTGIYYCTSYGNYVGHYFDHWGQGTTLTVSS
binding: binds
